Results reported in US9295667B2, “Pharmaceutical composition for preventing or treating diabetes or fatty liver containing a CYP4A inhibitor as an active ingredient” (Korea Basic Science Institute, priority 2011, dated 2016).
At least one compound was matched to its structure with a doubt left.

What was measured:
Conditions in all cases: Cyp4a inducer, 400 mg/kg/day intraperitoneal, 2 weeks
[1] = tested on: cleaved Caspase-3 and -9, Bax and Bcl-2; experiment: Apoptosis markers by Western blotting in liver of db/db mice; format: in vivo
Protocol: (§1) Male C57BL/6J and C57BL/KsJ-db/db mice were purchased from Japan SLC. HET0016 (5 mg/kg/day) and clofibrate (400 mg/kg/day) were injected intraperitoneally into eight (8)-week-old mice for two (2) weeks. Control littermate mice for HET0016 were treated with DMSO, while control littermate mice for clofibrate were treated with corn oil. Intraperitoneal glucose tolerance test (IPGTT) was performed after overnight fasting followed by intraperitoneal injection of lg/kg of glucose dissolved in PBS. The concentrations of blood glucose were measured using a One Touch Ultra glucometer (LifeScan, Inc.) before (0 min) and at 15, 30, 60, 90 and 120 min. after glucose injection. Livers isolated from 10-week-old mice were fixed in 10% neutral buffered formalin solution (Sigma), and paraffin sections were stained with hematoxylin-eosin.
(§2) Proteins were denatured at 95° C., and separated by SDS-PAGE, followed by electroblotting on a membrane made of nitrocellulose (NC) or polyvinylidene difluoride (PVDF). After blocking in TBST (Tris-buffered Saline, 0.1% Tween-20) containing 5% non-fat milk (skim milk) or 5% bovine serum albumin (BSA), the membrane was incubated with labeled primary antibodies. […] Protein blots were detected by using ECL kit and visualized by a luminescence imaging analyzer of LAS-4000 mini system and software (FujiFilm). […]

[2] = tested on: insulin receptor (IR) and Akt; experiment: In vivo insulin signaling (phosphorylation of IR and Akt) in liver of db/db mice
Protocol: as §1, §2

[3] = tested on: ER stress markers (PERK, phospho-eIF2α, CHOP, phospho-JNK); experiment: Western blotting of ER stress markers in liver tissues of db/db mice; format: in vivo
Protocol: as §1
Liver microsomes were prepared from fresh mice livers by applying a slight modification to the above described methods. Separated livers were thoroughly sprinkled with 1.15% KCl solution. […]
Proteins were denatured at 95° C., and separated by SDS-PAGE, followed by electroblotting on a membrane made of nitrocellulose (NC) or polyvinylidene difluoride (PVDF). […] Protein blots were detected by using ECL kit and visualized by a luminescence imaging analyzer of LAS-4000 mini system and software (FujiFilm). […]

**Q.** What does the source list for CCOC(=O)C(C)(C)Oc1ccc(Cl)cc1 [clofibrate]?
**A.** apoptosis [1]: significantly regulated; insulin resistance [2]: significantly regulated; PERK, eIF2α and JNK status [3]: caused the activation; expression of CHOP [3]: elevated expression
